According to article PMC5686453 (ACS chemical neuroscience, 2017):

Assays:
[1] = test system: 0.6% acetic acid-induced writhing in mice; test: 0.6% acetic acid-induced writhing; format: in vivo, ICR mice; conditions: s.c. pretreatment, 25 min observation
[2] = test system: lactic acid-depressed nesting in mice; conditions: previous study; cited from earlier work
[3] = test system: 0.32% lactic acid-induced writhing in mice; format: in vivo, ICR mice; conditions: s.c. pretreatment, 25 min observation

Q: For `CN1CC[C@]23c4c5ccc(O)c4O[C@H]2[C@@H](O)C=C[C@H]3[C@H]1C5` [morphine, reference compound], which “effect on 0.6% acetic acid-induced writhing (in words)” value [1] is on record?
A: The value was “dose-dependently attenuated”.

Q: What about the “reversal of depressed nesting behavior in […] lactic acid-treated mice” value [2] of the same compound?
A: Its value is “partially effective”.

Q: What about the “effect on […] lactic acid-induced writhing (in words)” value [3] of the same compound?
A: Its value is “dose-dependently reduced”.
